The target of assay [1] is PREPLS, wild type (MAPPIT bait) (human) (UniProt Q4J6C6). Nature of the assay: two-hybrid.
The target of assay [2] is recombinant PREPLs p.Arg647Gln (residues 90-727) (human) (UniProt Q4J6C6). Nature of the assay: SEC.
For assay [3], the target named is PREPL p.Ser559Ala, catalytically inactive (MAPPIT bait) (human) (UniProt Q4J6C6). As to the kind of experiment: two-hybrid.
The target of assay [4] is recombinant PREPLs p.Arg243Cys (residues 90-727) (human) (UniProt Q4J6C6). Nature of the assay: SEC.
For assay [5], the target named is T1, recombinant PREPLs p.Ser559Ala, catalytically inactive (residues 90-727) (human), Q4J6C6.
T1 chain: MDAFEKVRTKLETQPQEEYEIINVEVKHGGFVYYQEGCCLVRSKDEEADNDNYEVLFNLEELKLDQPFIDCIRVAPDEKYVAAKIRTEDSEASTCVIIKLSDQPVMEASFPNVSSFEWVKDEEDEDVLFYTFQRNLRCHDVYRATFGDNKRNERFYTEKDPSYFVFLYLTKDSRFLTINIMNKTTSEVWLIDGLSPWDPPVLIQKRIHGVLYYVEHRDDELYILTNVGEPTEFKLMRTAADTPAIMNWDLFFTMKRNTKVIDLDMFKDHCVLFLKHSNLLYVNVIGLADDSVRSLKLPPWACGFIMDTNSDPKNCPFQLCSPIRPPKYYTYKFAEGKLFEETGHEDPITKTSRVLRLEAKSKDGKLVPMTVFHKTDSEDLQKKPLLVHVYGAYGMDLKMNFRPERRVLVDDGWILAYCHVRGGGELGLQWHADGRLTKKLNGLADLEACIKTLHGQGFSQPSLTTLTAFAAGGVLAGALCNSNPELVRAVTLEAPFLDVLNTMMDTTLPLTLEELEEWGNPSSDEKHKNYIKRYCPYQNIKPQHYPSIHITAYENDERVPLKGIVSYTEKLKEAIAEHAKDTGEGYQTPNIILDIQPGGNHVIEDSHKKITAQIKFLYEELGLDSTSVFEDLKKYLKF
As to the kind of experiment: SEC. To be noted: remark: other sources report otherwise.

The chains behind the UniProt entries cited, without tags or fusion partners. Where a name states a change or a piece, a line headed by the entry shows the natural chain unless it says otherwise. Residues count along the entry.
UniProt Q9BTE1, whole entry: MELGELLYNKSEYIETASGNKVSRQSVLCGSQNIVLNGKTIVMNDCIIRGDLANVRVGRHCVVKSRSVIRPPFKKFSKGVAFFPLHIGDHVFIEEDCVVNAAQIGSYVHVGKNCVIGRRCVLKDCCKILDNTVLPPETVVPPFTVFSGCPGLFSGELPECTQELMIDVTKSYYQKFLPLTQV
UniProt P19404, 33-249: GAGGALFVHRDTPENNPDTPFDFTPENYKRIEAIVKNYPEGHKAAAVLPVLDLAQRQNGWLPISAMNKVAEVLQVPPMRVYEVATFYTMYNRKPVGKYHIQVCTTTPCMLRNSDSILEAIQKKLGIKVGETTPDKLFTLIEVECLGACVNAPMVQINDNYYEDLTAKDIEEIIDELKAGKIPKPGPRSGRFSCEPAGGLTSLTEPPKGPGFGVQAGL
UniProt Q9BPX5, whole entry: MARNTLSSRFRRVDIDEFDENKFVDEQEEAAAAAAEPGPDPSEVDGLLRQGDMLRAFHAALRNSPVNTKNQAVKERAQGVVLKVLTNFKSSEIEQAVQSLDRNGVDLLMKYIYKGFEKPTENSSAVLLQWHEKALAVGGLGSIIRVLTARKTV

The target of assay [6] is PREPL p.Arg647Gln (MAPPIT bait) (human) (UniProt Q4J6C6). As to the kind of experiment: two-hybrid.
The target in assay [7] is PREPL p.Arg243Cys (MAPPIT bait) (human) (UniProt Q4J6C6). As to the kind of experiment: two-hybrid.

These are yes or no findings as the source states them, for the method shown. Some results given as binding are weak or reduced against the parent protein; the word gives no strength.

Regarding DCTN5 (from UniProt Q9BTE1 1-182), the binding result in assay [1] is given as “binds”.

With “recombinant PREPLs p.Arg647Gln (residues 90-727) (from UniProt Q4J6C6 90-727) (enzyme)”, the binding result in assay [2] is on record as “no binding”.

As to NDUFV2 (from UniProt P19404 33-249), the binding result in assay [3] and in assay [1] was “binds” each time.

Consider ARPC5L (from UniProt Q9BPX5 1-153), for which the binding entry in assay [3] and in assay [1] was “binds” in each case.

Consider “recombinant PREPLs p.Arg243Cys (residues 90-727) (from UniProt Q4J6C6 90-727) (enzyme)”, for which the binding result in assay [4] was “no binding”.

B1: recombinant PREPLs p.Ser559Ala, catalytically inactive (residues 90-727), Q4J6C6 90-727 (enzyme)
chain: MDAFEKVRTKLETQPQEEYEIINVEVKHGGFVYYQEGCCLVRSKDEEADNDNYEVLFNLEELKLDQPFIDCIRVAPDEKYVAAKIRTEDSEASTCVIIKLSDQPVMEASFPNVSSFEWVKDEEDEDVLFYTFQRNLRCHDVYRATFGDNKRNERFYTEKDPSYFVFLYLTKDSRFLTINIMNKTTSEVWLIDGLSPWDPPVLIQKRIHGVLYYVEHRDDELYILTNVGEPTEFKLMRTAADTPAIMNWDLFFTMKRNTKVIDLDMFKDHCVLFLKHSNLLYVNVIGLADDSVRSLKLPPWACGFIMDTNSDPKNCPFQLCSPIRPPKYYTYKFAEGKLFEETGHEDPITKTSRVLRLEAKSKDGKLVPMTVFHKTDSEDLQKKPLLVHVYGAYGMDLKMNFRPERRVLVDDGWILAYCHVRGGGELGLQWHADGRLTKKLNGLADLEACIKTLHGQGFSQPSLTTLTAFAAGGVLAGALCNSNPELVRAVTLEAPFLDVLNTMMDTTLPLTLEELEEWGNPSSDEKHKNYIKRYCPYQNIKPQHYPSIHITAYENDERVPLKGIVSYTEKLKEAIAEHAKDTGEGYQTPNIILDIQPGGNHVIEDSHKKITAQIKFLYEELGLDSTSVFEDLKKYLKF
Regarding B1, the binding entry in assay [5] was “no binding”.

B2: DISC1 (protein, UniProt Q9NRI5 1-854)
chain: MPGGGPQGAPAAAGGGGVSHRAGSRDCLPPAACFRRRRLARRPGYMRSSTGPGIGFLSPAVGTLFRFPGGVSGEESHHSESRARQCGLDSRGLLVRSPVSKSAAAPTVTSVRGTSAHFGIQLRGGTRLPDRLSWPCGPGSAGWQQEFAAMDSSETLDASWEAACSDGARRVRAAGSLPSAELSSNSCSPGCGPEVPPTPPGSHSAFTSSFSFIRLSLGSAGERGEAEGCPPSREAESHCQSPQEMGAKAASLDGPHEDPRCLSRPFSLLATRVSADLAQAARNSSRPERDMHSLPDMDPGSSSSLDPSLAGCGGDGSSGSGDAHSWDTLLRKWEPVLRDCLLRNRRQMEVISLRLKLQKLQEDAVENDDYDKAETLQQRLEDLEQEKISLHFQLPSRQPALSSFLGHLAAQVQAALRRGATQQASGDDTHTPLRMEPRLLEPTAQDSLHVSITRRDWLLQEKQQLQKEIEALQARMFVLEAKDQQLRREIEEQEQQLQWQGCDLTPLVGQLSLGQLQEVSKALQDTLASAGQIPFHAEPPETIRSLQERIKSLNLSLKEITTKVCMSEKFCSTLRKKVNDIETQLPALLEAKMHAISGNHFWTAKDLTEEIRSLTSEREGLEGLLSKLLVLSSRNVKKLGSVKEDYNRLRREVEHQETAYETSVKENTMKYMETLKNKLCSCKCPLLGKVWEADLEACRLLIQSLQLQEARGSLSVEDERQMDDLEGAAPPIPPRLHSEDKRKTPLKVLEEWKTHLIPSLHCAGGEQKEESYILSAELGEKCEDIGKKLLYLEDQLHTAIHSHDEDLIQSLRRELQMVKETLQAMILQLQPAKEAGEREAAASCMTAGVHEAQA
With B2, the binding result in assay [6] and in assay [1] was “binds” throughout.

B3: MDM1 (protein, UniProt Q8TC05 1-714)
chain: MPVRFKGLSEYQRNFLWKKSYLSESCNSSVGRKYPWAGLRSDQLGITKEPSFISKRRVPYHDPQISKSLEWNGAISESNVVASPEPEAPETPKSQEAEQKDVTQERVHSLEASRVPKRTRSHSADSRAEGASDVENNEGVTNHTPVNENVELEHSTKVLSENVDNGLDRLLRKKAGLTVVPSYNALRNSEYQRQFVWKTSKETAPAFAANQVFHNKSQFVPPFKGNSVIHETEYKRNFKGLSPVKEPKLRNDLRENRNLETVSPERKSNKIDDRLKLEAEMELKDLHQPKRKLTPWKHQRLGKVNSEYRAKFLSPAQYLYKAGAWTHVKGNMPNQVKELREKAEFYRKRVQGTHFSRDHLNQILSDSNCCWDVSSTTSSEGTVSSNIRALDLAGDPTSHKTLQKCPSTEPEEKGNIVEEQPQKNTTEKLGVSAPTIPVRRRLAWDTENTSEDVQKQPGEKEEEDDNEEEGDRKTGKQAFMGEQEKLDVREKSKADKMKEGSDSSVSSEKGGRLPTPKLRELGGIQRTHHDLTTPAVGGAVLVSPSKMKPPAPEQRKRMTSQDCLETSKNDFTKKESRAVSLLTSPAAGIKTVDPLPLREDSEDNIHKFAEATLPVSKIPKYPTNPPGQLPSPPHVPSYWHPSRRIQGSLRDPEFQHNVGKARMNNLQLPQHEAFNDEDEDRLSEISARSAASSLRAFQTLARAKKRKENFWGKT
Turning to B3, the binding entry in assay [3] and in assay [1] was “binds” each time.

B4: STX5 (protein, UniProt Q13190 1-355)
chain: MIPRKRYGSKNTDQGVYLGLSKTQVLSPATAGSSSSDIAPLPPPVTLVPPPPDTMSCRDRTQEFLSACKSLQTRQNGIQTNKPALRAVRQRSEFTLMAKRIGKDLSNTFAKLEKLTILAKRKSLFDDKAVEIEELTYIIKQDINSLNKQIAQLQDFVRAKGSQSGRHLQTHSNTIVVSLQSKLASMSNDFKSVLEVRTENLKQQRSRREQFSRAPVSALPLAPNHLGGGAVVLGAESHASKDVAIDMMDSRTSQQLQLIDEQDSYIQSRADTMQNIESTIVELGSIFQQLAHMVKEQEETIQRIDENVLGAQLDVEAAHSEILKYFQSVTSNRWLMVKIFLILIVFFIIFVVFLA
Regarding B4, the binding result in assay [3] and in assay [1] was “binds” each time.

B5: UBL5 (protein, UniProt Q9BZL1 1-73)
chain: MIEVVCNDRLGKKVRVKCNTDDTIGDLKKLIAAQTGTRWNKIVLKKWYTIFKDHVSLGDYEIHDGMNLELYYQ
Regarding B5, the binding result in assay [7], in assay [6] and in assay [1] was “binds” each time.

(Values after publication doi:10.1101/2023.12.18.572145.)
